Measured values published in the supplement of paper PMC8728848.
Some of the results follow.

Assays:
Test in all cases: glycan array binding signal (z-score within array); higher = stronger binding
Conditions in all cases: glycan notation: IUPAC condensed, linker removed; mutation: E321K
GlcNAc(b1-3)Gal(b1-4)Glc = target: GlcNAc(b1-3)Gal(b1-4)Glc
How it was run: (§1)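 Glycan array binding is given as a within-array Z-score, which can be read as non-binding when negative. The arrays, 3228 of them, came from the Consortium for Functional Glycomics database and were retained only where the protein sequence was available. Z-scores were averaged across arrays of the same protein sequence at different concentrations or buffers and across linkers.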

[1] = target: GlcNAc(b1-3)Gal(b1-4)GlcNAc
How it was run: as §1

[2] = target: GlcNAc(b1-3)Gal(b1-4)GlcNAc(b1-3)Gal(b1-4)GlcNAc
How it was run: as §1

GlcNAc(b1-3)GalNAc = target: GlcNAc(b1-3)GalNAc
How it was run: as §1

GlcNAc(b1-3)Man = target: GlcNAc(b1-3)Man
How it was run: as §1

[3] = target: GlcNAc(b1-3)[GlcNAc(b1-4)][GlcNAc(b1-6)]GlcNAc
How it was run: as §1

[4] = target: GlcNAc(b1-3)[GlcNAc(b1-6)]Gal(b1-4)GlcNAc
How it was run: as §1

[5] = target: GlcNAc(b1-3)[GlcNAc(b1-6)]GalNAc
How it was run: as §1

[6] = target: GlcNAc(b1-4)Gal(b1-4)GlcNAc
How it was run: as §1

GlcNAc(b1-4)GlcNAc = target: GlcNAc(b1-4)GlcNAc
How it was run: as §1

[7] = target: GlcNAc(b1-4)GlcNAc(b1-4)GlcNAc
How it was run: as §1

[8] = target: GlcNAc(b1-4)GlcNAc(b1-4)GlcNAc(b1-4)GlcNAc(b1-4)GlcNAc
How it was run: as §1

[9] = target: GlcNAc(b1-4)GlcNAc(b1-4)GlcNAc(b1-4)GlcNAc(b1-4)GlcNAc(b1-4)GlcNAc
How it was run: as §1

[10] = target: GlcNAc(b1-4)[GlcNAc(b1-6)]GalNAc
How it was run: as §1

[11] = target: GlcNAc(b1-6)Gal(b1-4)GlcNAc
How it was run: as §1

GlcNAc(b1-6)GalNAc = target: GlcNAc(b1-6)GalNAc
How it was run: as §1

GlcNAc3Prop(b1-4)GlcNAc = target: GlcNAc3Prop(b1-4)GlcNAc
How it was run: as §1

Kdn(a2-3)Gal(b1-3)GlcNAc = target: Kdn(a2-3)Gal(b1-3)GlcNAc
How it was run: as §1

Kdn(a2-3)Gal(b1-4)GlcNAc = target: Kdn(a2-3)Gal(b1-4)GlcNAc
How it was run: as §1

[12] = target: Man(a1-2)Man(a1-2)Man(a1-3)Man
How it was run: as §1

[13] = target: Man(a1-2)Man(a1-2)Man(a1-6)[Man(a1-3)]Man
How it was run: as §1

Man(a1-2)Man(a1-3)Man = target: Man(a1-2)Man(a1-3)Man
How it was run: as §1

[14] = target: Man(a1-2)Man(a1-3)[Man(a1-2)Man(a1-6)]Man
How it was run: as §1

[15] = target: Man(a1-2)Man(a1-3)[Man(a1-2)Man(a1-6)]Man(a1-6)[Man(a1-2)Man(a1-2)Man(a1-3)]Man
How it was run: as §1

[16] = target: Man(a1-2)Man(a1-3)[Man(a1-2)Man(a1-6)]Man(a1-6)[Man(a1-2)Man(a1-2)Man(a1-3)]Man(b1-4)GlcNAc(b1-4)GlcNAc
How it was run: as §1

[17] = target: Man(a1-2)Man(a1-3)[Man(a1-6)]Man(a1-6)[Man(a1-2)Man(a1-3)]Man(b1-4)GlcNAc(b1-4)GlcNAc
How it was run: as §1

[18] = target: Man(a1-2)Man(a1-6)[Man(a1-3)]Man(a1-6)[Man(a1-2)Man(a1-2)Man(a1-3)]Man
How it was run: as §1

[19] = target: Man(a1-2)Man(a1-6)[Man(a1-3)]Man(a1-6)[Man(a1-2)Man(a1-2)Man(a1-3)]Man(b1-4)GlcNAc(b1-4)GlcNAc
How it was run: as §1

Man(a1-3)[Man(a1-6)]Man = target: Man(a1-3)[Man(a1-6)]Man
How it was run: as §1

[20] = target: Man(a1-3)[Man(a1-6)]Man(a1-6)[Man(a1-2)Man(a1-3)]Man(b1-4)GlcNAc(b1-4)GlcNAc
How it was run: as §1

[21] = target: Man(a1-3)[Man(a1-6)]Man(a1-6)[Man(a1-3)]Man
How it was run: as §1

[22] = target: Man(a1-3)[Man(a1-6)]Man(a1-6)[Man(a1-3)]Man(b1-4)GlcNAc(b1-4)GlcNAc
How it was run: as §1

[23] = target: Man(a1-3)[Man(a1-6)]Man(b1-4)GlcNAc(b1-4)GlcNAc
How it was run: as §1

Man(a1-6)Man = target: Man(a1-6)Man
How it was run: as §1

Man(b1-4)GlcNAc = target: Man(b1-4)GlcNAc
How it was run: as §1

Neu5Ac(a2-3)Gal = target: Neu5Ac(a2-3)Gal
How it was run: as §1

[24] = target: Neu5Ac(a2-3)Gal(b1-3)GalNAc
How it was run: as §1

B1: Surfactant Protein D (Human); Neck + Carbohydrate Recognition Domain (NCRD) (Homo sapiens) (protein)
chain: MLLFLLSALVLLTQPLGYLEAEMKTYSHRTMPSACTLVMCSSVESGLPGRDRDGREGPRGEKGDPGLPGAAGQAGMPGQAGPVGPKGDNGSVGEPGPKGDTGPSGPPGPPGVPGPAGREGALGKQGNIGPQGKPGPKGEAGPKGEVGAPGMQGSAGARGLAGPKGERGVPGERGVPGNTGAAGSAGAMGPQGSPGARGPPGLKGDKGIPGDKGAKGESGLPDVASLRQQVEALQGQVQHLQAAFSQYKKVELFPNGQSVGEKIFKTAQFVKPFTEAQLLCTQAGGQLASPRSAAENAALQQLVVAKNEAAFLSMTDSKTEGKFTYPTGESLVYSNWAPGKPNDDGGSEDCVEIFTNGKWNDRACGEKRLVVCEF
glycan array binding signal (z-score) (GlcNAc(b1-3)Gal(b1-4)Glc): -0.659 | glycan array binding signal (z-score) [1]: -0.532 | glycan array binding signal (z-score) [2]: -0.73 | glycan array binding signal (z-score) (GlcNAc(b1-3)GalNAc): -1.48 | glycan array binding signal (z-score) (GlcNAc(b1-3)Man): -0.467 | glycan array binding signal (z-score) [3]: 0.464 | glycan array binding signal (z-score) [4]: -0.357 | glycan array binding signal (z-score) [5]: -0.62 | glycan array binding signal (z-score) [6]: 0.48 | glycan array binding signal (z-score) (GlcNAc(b1-4)GlcNAc): 2.94 | glycan array binding signal (z-score) [7]: -1.01 | glycan array binding signal (z-score) [8]: 0.163 | glycan array binding signal (z-score) [9]: -0.106 | glycan array binding signal (z-score) [10]: 1.29 | glycan array binding signal (z-score) [11]: -0.718 | glycan array binding signal (z-score) (GlcNAc(b1-6)GalNAc): 0.9 | glycan array binding signal (z-score) (GlcNAc3Prop(b1-4)GlcNAc): -0.82 | glycan array binding signal (z-score) (Kdn(a2-3)Gal(b1-3)GlcNAc): -0.089 | glycan array binding signal (z-score) (Kdn(a2-3)Gal(b1-4)GlcNAc): -0.628 | glycan array binding signal (z-score) [12]: 0.995 | glycan array binding signal (z-score) [13]: 0 | glycan array binding signal (z-score) (Man(a1-2)Man(a1-3)Man): 0.763 | glycan array binding signal (z-score) [14]: -0.073 | glycan array binding signal (z-score) [15]: -0.797 | glycan array binding signal (z-score) [16]: 0.067 | glycan array binding signal (z-score) [17]: -0.618 | glycan array binding signal (z-score) [18]: -0.222 | glycan array binding signal (z-score) [19]: 0.149 | glycan array binding signal (z-score) (Man(a1-3)[Man(a1-6)]Man): -0.067 | glycan array binding signal (z-score) [20]: 0.498 | glycan array binding signal (z-score) [21]: -0.383 | glycan array binding signal (z-score) [22]: -0.809 | glycan array binding signal (z-score) [23]: -0.27 | glycan array binding signal (z-score) (Man(a1-6)Man): -1.05 | glycan array binding signal (z-score) (Man(b1-4)GlcNAc): -0.51 | glycan array binding signal (z-score) (Neu5Ac(a2-3)Gal): -0.44 | glycan array binding signal (z-score) [24]: -0.355
